# In patent US7723070B2, “Overexpression of aminoacyl-tRNA synthetases for efficient production of engineered proteins containing amino acid analogues” (California Institute of Technology, priority 2000, dated 2010):
# Some results were stated once for a whole list of compounds, not compound by compound. For at least one compound, name, drawing or mass did not settle the structure.
# Test system: E. coli strain CAG18491/pQE15/pREP4
# Experiment: Translational activity: mDHFR synthesis in methionine-depleted cultures of conventional host
# Type: cell-based
# Conditions: methionine-depleted minimal medium, IPTG induction
# Experimental: Buffers and media were prepared according to standard protocols (Sambrook, J.; Fritsch, E. F.; Maniatis, T. Molecular Cloning: A Laboratory Manual, 2nd Ed. Cold Spring Harbor Laboratory Press, Cold Spring Harbor, N.Y. 1989; Ausubel, F. M.; Brent, K.; Kingston, K. E.; Moore, D. D.; Scidman, J. G.; Smith, J. A.; Struhl, K. Current Protocols in Molecular Biology, John Wiley & Sons, NY 1995). The E. coli methionine auxotroph CAG18491 (λ^−, rph-1, metE3079.:Tn10) (obtained from the Yale E. coli Genetic Stock Center), was transformed with plasmids pREP4 and pQE15 (Qiagen, Valencia, Calif.), to obtain the expression host CAG18491/pQE15/pREP4.
# M9AA medium (50 mL) supplemented with 1 mM MgSO4, 0.2 wt % glucose, 1 mg/L thiamine chloride and the antibiotics ampicillin (200 mg/L) and kanamycin (25 mg/L) was inoculated with 2 mL of an overnight culture of CAG18491/pQE15/pREP4. When the turbidity of the culture reached an optical density at 600 nm (OD600) of 0.8, a medium shift was performed. The cells were sedimented for 10 min at 3030 g at 4° C., the supernatant was removed, and the cell pellet was washed twice with 20 mL of M9 medium. Cells were resuspended in 50 mL of the M9AA medium described above, without methionine. […] (0.31 mM), respectively. A culture lacking methionine (or any analogue) served as the negative control. Protein expression was induced by addition of isopropyl-β-D-thiogalactopyranoside (IPTG) to a final concentration of 0.4 mM. Samples were taken every hour for 4 h, the OD600 was measured, and the samples were sedimented. After the supernatant was decanted, the cell pellets were resuspended, in 20 μL distilled H2O.
# Protein expression was monitored by SDS polyacrylamide gel electrophoresis (12% acrylamide running gel, 12 mA, 14 h), using a normalized OD600 of 0.2 per sample.
# The example presented is for medium supplemented with 3. M9AA medium (100 mL) supplemented with 1 mM MgSO4 0.2 wt % glucose, 1 mg/L thiamine chloride and the antibiotics ampicillin (200 mg/L) and kanamycin (25 mg/L) was inoculated with E. coli strain CAG18491/pQE15/pREP4 and grown overnight at 37° C. This culture was used to inoculate 900 mL M9AA medium supplemented as described. The cells were grown to an OD600 of 0.94 and the medium shift was performed as described for the small scale experiments, followed by addition of 40 mL of 1 mg/mL DL-homopropargylglycine (3). IPTG (0.4 mM) was added, and samples were taken at 1 hour intervals. OD600 was measured, the samples were sedimented and decanted, and the cell pellets were resuspended in 20 μL distilled H2O. Protein expression was monitored by SDS polyacrylamide gel electrophoresis (12% acrylamide running gel, 12 mA, 15 h).
# Approximately 4.5 h after induction, cells were sedimented (9,800 g, 10 min, 4° C.) and the supernatant was removed. The pellet was placed in the freezer overnight. The cells were thawed for 30 min at 37° C., 30 mL of buffer (6 M guanidine-HCl, 0.1 M NaH2PO4, 0.01 M Tris, pH 8) was added and the mixture was shaken at room temperature for 1 h. […] The supernatant was loaded on 10 mL of resin which was then washed with 50 mL of guanidine buffer followed by 25 mL of urea buffer (8 M urea, 0.1 M NaH2PO4 and 0.01 M Tris, pH 8). Similar urea buffers were used for three successive 25 mL washes at pH values of 6.3, 5.9 and 4.5, respectively. […] These washes were combined and dialyzed (Spectra/Por membrane 1, MWCO=6-8 kDa) against running distilled water for 4 days, followed by batchwise dialysis against doubly distilled water for one day. […] Amino acid analyses, electrospray mass spectrometry and N-terminal protein sequencing was performed on the mDHFR isolated.
row,Compound,translational activity: capacity to support mDHFR synthesis in absence of methionine (SDS-PAGE)
1,"C=CCOC[C@H](N)C(=O)O (racemic) [Analogue 10, o-allylserine]",do not support protein synthesis
2,"NC(CCCC(F)(F)F)C(=O)O (racemic) [Analogue 6, DL-6,6,6-trifluoro-2-amino hexanoic acid]",do not support protein synthesis
3,"C/C=C/CC(N)C(=O)O (racemic) [Analogue 5, trans-2-amino-4-hexenoic acid]",do not support protein synthesis
4,"C=CCC(N)C(=O)O (stereo not drawn) [Analogue 12, allylglycine]",do not support protein synthesis
5,"C/C=C\CC(N)C(=O)O (racemic) [Analogue 4, cis-2-amino-4-hexenoic acid]",do not support protein synthesis
6,2-butynylglycine [Analogue 11],do not support protein synthesis
